Reference: patent US12570697B2, “Cyclic peptide useful in the treatment of cancer” (Syntherix Limited, priority 2019, dated 2026)

Test: imaging of peptide distribution within the cell (Example 1, FIG. 4)
Format: cell-based

Substance: HILRa-025: a cyclic peptide composed of a ‘warhead’ and ‘backbone’ as described in WO/2016/020437 (PRGPRPVWWRRWWRR; cyclic; Hilra-025 Synthesized)
- location of auto-fluorescent signal (above concentrations of 10 μM, data not shown): predominantly located in the nucleus

Substance: Cys-[Pro-Arg-Gly-Pro-Arg-Pro-DAC-Trp-Trp-Arg-Arg-Trp-Tp-Arg-Arg-Trp-Trp] [HILRa-025-Dac]
- distribution of DAC-peptide within the cell (6 μM in the absence of Nanocin-Pro or 3 μM in the presence of Nanocin-Pro): throughout the nucleus and cytoplasm
